Values from PubChem BioAssay AID1224830 (NIAID, 2016).

- Test: 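Host factors that control LPS-induced TNF expression in human macrophages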 (primary screen)
- Cell system: human THP-1 monocytic leukaemia cells, TNF dual-luciferase reporter clone, PMA-differentiated to macrophage-like cells
- Knock-down reagent: siRNA pool against human genes, 50 nM
- Duration: LPS for 4 h, given about 3 days after siRNA transfection
- Treatment: bacterial LPS (TLR4 ligand), 10 ng/ml
- Measured: 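Ratio of firefly to renilla light, scaled to the plate median and expressed as a robust z-score per replicate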
- Reading the numbers: TNF reporter robust z-score: higher = stronger TNF reporter response to LPS
- Hit rule: 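a well is active when its z-score exceeds 2.8 or falls below -1.5; control wells carry no call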
Here is an unselected part of about 18,000 reagents tested. About 2,900 of them (16%) were called active. 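Calls are made per well; low scores hint the gene aids the LPS response, high scores that it dampens it.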 Repeated entries: four replicate wells of each siRNA pool.

RFLNB (refilin B) → TNF reporter robust z-score = 0.57; call = inactive
RFLNB (refilin B) → TNF reporter robust z-score = 1.91; call = inactive
RFLNB (refilin B) → TNF reporter robust z-score = 2.97; call = active
RFLNB (refilin B) → TNF reporter robust z-score = 2.25; call = inactive
CLDN1 (claudin 1) → TNF reporter robust z-score = -0.27; call = inactive
CLDN1 (claudin 1) → TNF reporter robust z-score = 1.35; call = inactive
CLDN1 (claudin 1) → TNF reporter robust z-score = 0.73; call = inactive
CLDN1 (claudin 1) → TNF reporter robust z-score = -0.08; call = inactive
ADIG (adipogenin) → TNF reporter robust z-score = 0.05; call = inactive
ADIG (adipogenin) → TNF reporter robust z-score = -0.34; call = inactive
ADIG (adipogenin) → TNF reporter robust z-score = 0.12; call = inactive
ADIG (adipogenin) → TNF reporter robust z-score = 0.36; call = inactive
MAPRE1 (microtubule associated protein RP/EB family member 1) → TNF reporter robust z-score = -0.61; call = inactive
MAPRE1 (microtubule associated protein RP/EB family member 1) → TNF reporter robust z-score = -0.35; call = inactive
MAPRE1 (microtubule associated protein RP/EB family member 1) → TNF reporter robust z-score = -0.52; call = inactive
STX1A (syntaxin 1A) → TNF reporter robust z-score = -1.15; call = inactive
STX1A (syntaxin 1A) → TNF reporter robust z-score = -1.79; call = active
STX1A (syntaxin 1A) → TNF reporter robust z-score = -0.98; call = inactive
STX1A (syntaxin 1A) → TNF reporter robust z-score = -1.01; call = inactive
KLK11 (kallikrein related peptidase 11) → TNF reporter robust z-score = -0.55; call = inactive
KLK11 (kallikrein related peptidase 11) → TNF reporter robust z-score = 1.08; call = inactive
KLK11 (kallikrein related peptidase 11) → TNF reporter robust z-score = -0.52; call = inactive
KLK11 (kallikrein related peptidase 11) → TNF reporter robust z-score = -1.15; call = inactive
PKD1 → TNF reporter robust z-score = -0.7; call = inactive
PKD1 → TNF reporter robust z-score = 0.03; call = inactive
PKD1 → TNF reporter robust z-score = -2.06; call = active
PKD1 → TNF reporter robust z-score = -0.82; call = inactive
TGIF2 (TGFB induced factor homeobox 2) → TNF reporter robust z-score = 0.17; call = inactive
TGIF2 (TGFB induced factor homeobox 2) → TNF reporter robust z-score = -0.34; call = inactive
TGIF2 (TGFB induced factor homeobox 2) → TNF reporter robust z-score = -0.85; call = inactive
TGIF2 (TGFB induced factor homeobox 2) → TNF reporter robust z-score = -1.02; call = inactive
RTF2 (replication termination factor 2) → TNF reporter robust z-score = 1.05; call = inactive
RTF2 (replication termination factor 2) → TNF reporter robust z-score = 2.08; call = inactive
RTF2 (replication termination factor 2) → TNF reporter robust z-score = 1.4; call = inactive
RTF2 (replication termination factor 2) → TNF reporter robust z-score = 2.14; call = inactive
RALY (RALY heterogeneous nuclear ribonucleoprotein) → TNF reporter robust z-score = 2.13; call = inactive
RALY (RALY heterogeneous nuclear ribonucleoprotein) → TNF reporter robust z-score = 2.2; call = inactive
RALY (RALY heterogeneous nuclear ribonucleoprotein) → TNF reporter robust z-score = -0.76; call = inactive
RALY (RALY heterogeneous nuclear ribonucleoprotein) → TNF reporter robust z-score = -0.24; call = inactive
KRTAP19-5 (keratin associated protein 19-5) → TNF reporter robust z-score = 0.55; call = inactive
KRTAP19-5 (keratin associated protein 19-5) → TNF reporter robust z-score = 1.56; call = inactive
KRTAP19-5 (keratin associated protein 19-5) → TNF reporter robust z-score = 2.24; call = inactive
KRTAP19-5 (keratin associated protein 19-5) → TNF reporter robust z-score = 1; call = inactive
ZNF233 (zinc finger protein 233) → TNF reporter robust z-score = 0.45; call = inactive
ZNF233 (zinc finger protein 233) → TNF reporter robust z-score = 0.68; call = inactive
ZNF233 (zinc finger protein 233) → TNF reporter robust z-score = 0.89; call = inactive
ZNF233 (zinc finger protein 233) → TNF reporter robust z-score = 2.36; call = inactive
